Paper PMC12635182
These are yes or no findings as the source states them, for the method shown. Binding seen in cells or lysates may run through a third protein. Some binding calls cover weakened binding; strength is not graded here. Where a sequence is shown, tags or fusion partners need not be part of it.

Biological target: T1, VN-Sph1 (synphilin-1 fused behind the N-terminal fragment of Venus) (human) (UniProt Q9Y6H5)
T1 sequence: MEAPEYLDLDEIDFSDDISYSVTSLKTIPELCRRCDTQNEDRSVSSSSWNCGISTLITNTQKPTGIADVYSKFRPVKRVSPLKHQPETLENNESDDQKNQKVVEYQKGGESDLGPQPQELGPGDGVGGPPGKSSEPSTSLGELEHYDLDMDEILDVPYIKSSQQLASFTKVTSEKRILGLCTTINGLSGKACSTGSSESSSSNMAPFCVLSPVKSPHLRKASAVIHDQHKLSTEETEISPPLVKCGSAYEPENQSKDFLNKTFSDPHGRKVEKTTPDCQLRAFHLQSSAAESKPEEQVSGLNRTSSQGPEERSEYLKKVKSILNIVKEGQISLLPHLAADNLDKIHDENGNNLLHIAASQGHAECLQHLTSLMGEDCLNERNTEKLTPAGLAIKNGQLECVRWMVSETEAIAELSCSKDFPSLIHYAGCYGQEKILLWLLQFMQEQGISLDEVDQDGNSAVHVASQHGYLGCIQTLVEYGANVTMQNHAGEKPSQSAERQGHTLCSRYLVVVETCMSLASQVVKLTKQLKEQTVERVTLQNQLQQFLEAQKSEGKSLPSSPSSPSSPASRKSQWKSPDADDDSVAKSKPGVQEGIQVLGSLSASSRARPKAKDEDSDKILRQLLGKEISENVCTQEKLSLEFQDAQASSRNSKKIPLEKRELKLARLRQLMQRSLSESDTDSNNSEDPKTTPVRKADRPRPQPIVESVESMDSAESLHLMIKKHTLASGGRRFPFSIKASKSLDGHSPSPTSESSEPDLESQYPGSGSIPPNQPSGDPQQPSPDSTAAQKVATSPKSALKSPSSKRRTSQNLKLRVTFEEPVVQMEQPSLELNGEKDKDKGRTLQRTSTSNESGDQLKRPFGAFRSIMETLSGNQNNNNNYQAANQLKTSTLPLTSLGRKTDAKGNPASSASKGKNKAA
Test: split reporter; Venus BiFC in HEK 293 cells co-transfected with equimolar amounts of the VN and VC plasmids; fluorescence seen 24 or 48 h after transfection

binding: binds
B1: Sph1-VC (synphilin-1 fused in front of the C-terminal fragment of Venus) (protein, UniProt Q9Y6H5 1-919)
chain: T1 sequence
